The list shows a part of the results. Hit calls seldom repeat between salt and free forms of one compound.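 Kinases were expressed as nanoluciferase fusions in K562 cells and luminescence was read every 4 h between 2 and 18 h as percent of control, DMSO set to 100% and a positive control to 0%. A time point counts as decreased when the signal drops significantly (2 sigma). The hit call is the authors' own, does not follow from the count of time points alone, and its rule is not shown.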
Compound: O=C1Cc2c([nH]c3ccc(Br)cc23)-c2ccccc2N1 [Kenpaullone]
Test: number of time points (of 5) at which kinase-Nluc abundance scored as decreased, DMSO-normalised (count); higher = more persistent destabilization
Details: 10 µM; K562; 2-18 h

Sequences of proteins named here, by UniProt entry; tags and fusion partners are left off. A change or cut given only in a name is not applied to a line headed by its entry.
UniProt Q16620, whole entry, looked up: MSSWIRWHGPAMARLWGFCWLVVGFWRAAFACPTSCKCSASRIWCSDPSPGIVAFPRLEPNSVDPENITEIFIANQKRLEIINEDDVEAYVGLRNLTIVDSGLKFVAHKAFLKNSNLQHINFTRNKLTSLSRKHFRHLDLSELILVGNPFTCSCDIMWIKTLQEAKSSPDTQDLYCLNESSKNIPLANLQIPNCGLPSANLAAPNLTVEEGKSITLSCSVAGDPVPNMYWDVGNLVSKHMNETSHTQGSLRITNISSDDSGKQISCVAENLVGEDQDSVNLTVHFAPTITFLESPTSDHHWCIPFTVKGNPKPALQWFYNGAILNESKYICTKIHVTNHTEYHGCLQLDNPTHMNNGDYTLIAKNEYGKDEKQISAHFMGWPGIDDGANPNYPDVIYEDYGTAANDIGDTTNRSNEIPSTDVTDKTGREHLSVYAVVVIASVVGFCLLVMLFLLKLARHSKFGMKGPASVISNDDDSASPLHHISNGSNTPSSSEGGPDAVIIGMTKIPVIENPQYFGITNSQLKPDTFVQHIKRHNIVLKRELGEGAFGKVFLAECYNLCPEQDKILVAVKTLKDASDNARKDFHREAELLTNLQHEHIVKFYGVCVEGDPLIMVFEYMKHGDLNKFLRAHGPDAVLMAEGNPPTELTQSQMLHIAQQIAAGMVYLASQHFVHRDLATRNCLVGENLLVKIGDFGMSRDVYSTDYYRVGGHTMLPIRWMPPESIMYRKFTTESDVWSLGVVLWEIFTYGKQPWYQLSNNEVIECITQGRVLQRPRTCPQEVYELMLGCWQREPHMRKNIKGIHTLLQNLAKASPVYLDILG
UniProt P51813: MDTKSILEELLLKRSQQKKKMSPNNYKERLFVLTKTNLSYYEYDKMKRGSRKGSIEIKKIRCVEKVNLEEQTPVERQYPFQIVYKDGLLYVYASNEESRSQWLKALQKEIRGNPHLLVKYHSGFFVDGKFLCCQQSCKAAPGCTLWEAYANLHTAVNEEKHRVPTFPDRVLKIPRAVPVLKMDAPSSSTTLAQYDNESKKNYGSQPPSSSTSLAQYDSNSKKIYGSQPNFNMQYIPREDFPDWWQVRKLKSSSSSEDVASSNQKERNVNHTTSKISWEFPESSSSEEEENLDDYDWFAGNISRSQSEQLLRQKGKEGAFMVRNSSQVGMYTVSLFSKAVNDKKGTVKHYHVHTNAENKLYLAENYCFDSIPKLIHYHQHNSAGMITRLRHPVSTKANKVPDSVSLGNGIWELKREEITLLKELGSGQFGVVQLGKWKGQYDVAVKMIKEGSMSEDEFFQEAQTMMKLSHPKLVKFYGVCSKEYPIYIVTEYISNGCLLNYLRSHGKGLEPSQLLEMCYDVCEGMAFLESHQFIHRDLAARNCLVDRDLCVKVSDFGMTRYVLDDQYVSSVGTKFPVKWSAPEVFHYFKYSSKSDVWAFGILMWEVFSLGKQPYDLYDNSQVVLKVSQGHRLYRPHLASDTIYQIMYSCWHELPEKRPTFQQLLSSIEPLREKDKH
UniProt P28482, whole entry: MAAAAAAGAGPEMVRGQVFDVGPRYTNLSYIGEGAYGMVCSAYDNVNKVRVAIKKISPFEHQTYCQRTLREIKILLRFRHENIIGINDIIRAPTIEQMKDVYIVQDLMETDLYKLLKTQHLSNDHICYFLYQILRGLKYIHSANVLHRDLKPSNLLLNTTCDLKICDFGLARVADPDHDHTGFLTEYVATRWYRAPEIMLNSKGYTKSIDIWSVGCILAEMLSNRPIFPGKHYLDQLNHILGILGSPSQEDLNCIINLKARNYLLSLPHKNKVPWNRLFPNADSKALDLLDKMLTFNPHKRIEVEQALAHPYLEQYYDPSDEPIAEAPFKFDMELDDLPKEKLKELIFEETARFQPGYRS
UniProt P53350, whole entry: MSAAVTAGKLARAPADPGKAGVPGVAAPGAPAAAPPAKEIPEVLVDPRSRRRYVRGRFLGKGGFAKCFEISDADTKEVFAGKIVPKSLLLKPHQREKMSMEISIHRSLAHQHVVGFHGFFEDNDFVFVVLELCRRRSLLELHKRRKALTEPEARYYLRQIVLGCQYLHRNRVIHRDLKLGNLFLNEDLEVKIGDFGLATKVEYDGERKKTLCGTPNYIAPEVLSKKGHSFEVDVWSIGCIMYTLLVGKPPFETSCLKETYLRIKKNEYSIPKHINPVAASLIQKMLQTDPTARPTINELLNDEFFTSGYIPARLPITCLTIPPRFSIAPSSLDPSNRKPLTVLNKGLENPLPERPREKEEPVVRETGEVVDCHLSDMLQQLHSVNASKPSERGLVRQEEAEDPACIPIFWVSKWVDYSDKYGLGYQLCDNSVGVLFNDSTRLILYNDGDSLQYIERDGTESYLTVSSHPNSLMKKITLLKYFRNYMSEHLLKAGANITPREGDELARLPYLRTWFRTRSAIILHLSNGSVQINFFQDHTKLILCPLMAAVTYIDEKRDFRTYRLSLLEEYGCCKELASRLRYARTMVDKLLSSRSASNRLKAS
UniProt Q08345: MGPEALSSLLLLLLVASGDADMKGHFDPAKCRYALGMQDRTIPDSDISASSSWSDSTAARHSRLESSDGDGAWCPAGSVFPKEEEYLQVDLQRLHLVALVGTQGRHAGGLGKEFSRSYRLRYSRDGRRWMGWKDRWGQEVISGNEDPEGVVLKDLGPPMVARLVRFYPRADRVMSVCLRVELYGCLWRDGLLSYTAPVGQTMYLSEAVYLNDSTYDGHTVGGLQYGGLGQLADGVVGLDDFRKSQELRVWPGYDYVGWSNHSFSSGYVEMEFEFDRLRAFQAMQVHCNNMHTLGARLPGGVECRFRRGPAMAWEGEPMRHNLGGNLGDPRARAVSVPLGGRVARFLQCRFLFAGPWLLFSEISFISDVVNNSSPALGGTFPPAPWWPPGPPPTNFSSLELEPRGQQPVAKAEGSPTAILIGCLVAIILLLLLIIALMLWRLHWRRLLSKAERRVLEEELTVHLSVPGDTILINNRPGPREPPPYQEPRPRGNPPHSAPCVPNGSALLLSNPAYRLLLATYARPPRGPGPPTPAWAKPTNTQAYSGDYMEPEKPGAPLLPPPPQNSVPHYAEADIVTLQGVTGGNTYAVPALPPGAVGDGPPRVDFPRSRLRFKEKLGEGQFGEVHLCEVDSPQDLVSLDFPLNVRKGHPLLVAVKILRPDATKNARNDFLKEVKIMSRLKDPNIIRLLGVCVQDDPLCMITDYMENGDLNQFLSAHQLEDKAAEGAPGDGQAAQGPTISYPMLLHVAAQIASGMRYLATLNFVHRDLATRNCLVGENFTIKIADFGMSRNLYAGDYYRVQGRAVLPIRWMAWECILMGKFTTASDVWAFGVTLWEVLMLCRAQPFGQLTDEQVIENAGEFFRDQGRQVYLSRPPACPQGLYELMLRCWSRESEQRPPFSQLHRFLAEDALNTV
UniProt Q16288, whole entry, looked up: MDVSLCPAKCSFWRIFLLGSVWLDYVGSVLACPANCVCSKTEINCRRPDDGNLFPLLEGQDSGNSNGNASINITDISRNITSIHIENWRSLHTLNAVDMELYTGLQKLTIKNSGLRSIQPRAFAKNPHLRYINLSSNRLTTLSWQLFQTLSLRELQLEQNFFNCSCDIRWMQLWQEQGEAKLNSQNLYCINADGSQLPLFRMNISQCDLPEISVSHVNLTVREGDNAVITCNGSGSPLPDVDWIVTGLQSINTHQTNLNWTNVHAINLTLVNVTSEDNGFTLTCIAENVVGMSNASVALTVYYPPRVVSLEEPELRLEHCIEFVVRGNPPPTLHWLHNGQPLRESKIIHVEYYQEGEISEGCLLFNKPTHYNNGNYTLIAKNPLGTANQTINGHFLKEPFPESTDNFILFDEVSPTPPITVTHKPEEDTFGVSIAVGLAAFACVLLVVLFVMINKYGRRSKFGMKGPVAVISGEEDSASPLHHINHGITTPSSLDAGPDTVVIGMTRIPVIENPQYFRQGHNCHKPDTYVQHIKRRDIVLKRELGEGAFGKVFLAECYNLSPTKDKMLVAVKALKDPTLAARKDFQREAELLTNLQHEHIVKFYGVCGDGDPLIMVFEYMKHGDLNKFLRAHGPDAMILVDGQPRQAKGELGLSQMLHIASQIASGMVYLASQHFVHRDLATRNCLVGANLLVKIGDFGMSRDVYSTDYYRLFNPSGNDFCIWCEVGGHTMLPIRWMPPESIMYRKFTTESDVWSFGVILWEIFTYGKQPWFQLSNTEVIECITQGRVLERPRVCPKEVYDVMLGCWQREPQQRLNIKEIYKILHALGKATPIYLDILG
UniProt P48729: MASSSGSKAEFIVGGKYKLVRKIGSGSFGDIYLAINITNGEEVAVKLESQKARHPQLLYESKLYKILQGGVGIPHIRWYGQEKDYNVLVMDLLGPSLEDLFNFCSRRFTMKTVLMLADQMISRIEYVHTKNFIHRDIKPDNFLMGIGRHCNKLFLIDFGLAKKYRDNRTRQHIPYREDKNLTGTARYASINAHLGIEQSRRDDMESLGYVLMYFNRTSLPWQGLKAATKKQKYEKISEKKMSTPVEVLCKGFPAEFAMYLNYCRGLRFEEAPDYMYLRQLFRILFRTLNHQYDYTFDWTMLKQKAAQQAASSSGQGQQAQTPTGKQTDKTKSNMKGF
UniProt P09619, whole entry: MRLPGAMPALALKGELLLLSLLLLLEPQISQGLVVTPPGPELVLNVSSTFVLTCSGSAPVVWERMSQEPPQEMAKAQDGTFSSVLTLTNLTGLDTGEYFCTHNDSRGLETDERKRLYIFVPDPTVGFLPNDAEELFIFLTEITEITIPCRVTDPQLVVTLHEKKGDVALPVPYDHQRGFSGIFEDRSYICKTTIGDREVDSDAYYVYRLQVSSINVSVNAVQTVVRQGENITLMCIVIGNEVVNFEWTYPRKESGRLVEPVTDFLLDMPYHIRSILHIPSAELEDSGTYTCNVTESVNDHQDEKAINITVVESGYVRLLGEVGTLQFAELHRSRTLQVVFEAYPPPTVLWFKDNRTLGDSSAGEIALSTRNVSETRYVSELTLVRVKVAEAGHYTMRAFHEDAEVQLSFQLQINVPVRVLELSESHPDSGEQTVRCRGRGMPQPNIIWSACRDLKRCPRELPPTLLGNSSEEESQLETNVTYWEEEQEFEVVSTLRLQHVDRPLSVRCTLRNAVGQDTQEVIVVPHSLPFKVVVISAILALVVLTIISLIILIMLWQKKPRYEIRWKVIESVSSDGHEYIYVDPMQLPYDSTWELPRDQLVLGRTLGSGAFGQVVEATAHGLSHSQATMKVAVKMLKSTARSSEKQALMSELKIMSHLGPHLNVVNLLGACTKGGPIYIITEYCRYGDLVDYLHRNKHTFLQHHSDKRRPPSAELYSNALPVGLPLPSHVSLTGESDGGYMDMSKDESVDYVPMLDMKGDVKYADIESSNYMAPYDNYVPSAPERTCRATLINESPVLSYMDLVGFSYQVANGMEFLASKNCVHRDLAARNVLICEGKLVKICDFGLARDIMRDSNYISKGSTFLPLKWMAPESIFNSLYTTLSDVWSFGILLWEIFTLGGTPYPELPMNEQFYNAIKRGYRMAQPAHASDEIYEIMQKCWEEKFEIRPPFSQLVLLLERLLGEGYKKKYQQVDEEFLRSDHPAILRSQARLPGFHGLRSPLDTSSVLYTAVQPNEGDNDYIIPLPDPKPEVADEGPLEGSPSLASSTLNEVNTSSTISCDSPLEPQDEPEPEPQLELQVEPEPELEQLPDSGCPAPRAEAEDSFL
UniProt Q15418, whole entry: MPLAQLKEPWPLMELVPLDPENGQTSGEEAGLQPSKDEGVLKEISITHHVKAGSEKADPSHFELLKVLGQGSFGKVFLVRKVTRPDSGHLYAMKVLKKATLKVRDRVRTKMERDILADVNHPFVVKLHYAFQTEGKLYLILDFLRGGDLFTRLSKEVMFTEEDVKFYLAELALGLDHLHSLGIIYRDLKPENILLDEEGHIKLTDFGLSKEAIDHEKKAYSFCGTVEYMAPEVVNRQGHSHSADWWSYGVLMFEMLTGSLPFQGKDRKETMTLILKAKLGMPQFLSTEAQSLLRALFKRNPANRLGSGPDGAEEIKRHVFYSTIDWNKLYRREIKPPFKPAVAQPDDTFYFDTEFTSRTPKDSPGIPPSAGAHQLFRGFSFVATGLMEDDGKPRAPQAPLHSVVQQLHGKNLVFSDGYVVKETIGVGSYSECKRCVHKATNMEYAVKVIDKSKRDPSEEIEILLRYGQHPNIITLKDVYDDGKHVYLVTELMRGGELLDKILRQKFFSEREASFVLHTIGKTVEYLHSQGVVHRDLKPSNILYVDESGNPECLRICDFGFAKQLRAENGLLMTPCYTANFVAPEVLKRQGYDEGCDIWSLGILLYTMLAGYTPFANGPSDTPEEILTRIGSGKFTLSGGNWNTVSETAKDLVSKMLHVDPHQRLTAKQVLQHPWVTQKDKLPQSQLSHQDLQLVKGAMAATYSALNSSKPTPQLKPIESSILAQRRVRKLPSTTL

Target	number of time points
NTRK2 (UniProt Q16620)	0
SRC (UniProt P12931)	0
BMX (UniProt P51813)	0
BTK (UniProt Q06187)	0
MAPK1 (UniProt P28482)	0
CSF1R (UniProt P07333)	0
SYK (UniProt P43405)	0
PTK2 (UniProt Q05397)	1
PLK1 (UniProt P53350)	0
AURKA (UniProt O14965)	0
EPHA2 (UniProt P29317)	0
MAPKAPK2 (UniProt P49137)	0
CDK2 (UniProt P24941)	0
BRAF (UniProt P15056)	0
DDR1 (UniProt Q08345)	0
NTRK3 (UniProt Q16288)	0
ABL1 (UniProt P00519)	0
HER2 (UniProt P04626)	0
CSNK1A1 (UniProt P48729)	4
PDGFRB (UniProt P09619)	0
FGFR1 (UniProt P11362)	0
RPS6KA1 (UniProt Q15418)	0

Retrieved one by one from the entries so far (2):
Target	number of time points
CDK2 (UniProt P24941)	0
NTRK3 (UniProt Q16288)	0

— the supplement of paper PMC12823440, “Inhibitors supercharge kinase turnover through native proteolytic circuits” (Nature, 2025)
